In paper PMC3867403:
These are yes or no findings as the source states them, for the method shown. In cells and extracts the contact can be indirect. Some results given as binding are weak or reduced against the parent protein; the word gives no strength. Sequences can lack the tags named with a protein.

By UniProt entry, the sequences of proteins in these tests, tags left out. Residues count along the entry.
UniProt P51885, residues 19-338: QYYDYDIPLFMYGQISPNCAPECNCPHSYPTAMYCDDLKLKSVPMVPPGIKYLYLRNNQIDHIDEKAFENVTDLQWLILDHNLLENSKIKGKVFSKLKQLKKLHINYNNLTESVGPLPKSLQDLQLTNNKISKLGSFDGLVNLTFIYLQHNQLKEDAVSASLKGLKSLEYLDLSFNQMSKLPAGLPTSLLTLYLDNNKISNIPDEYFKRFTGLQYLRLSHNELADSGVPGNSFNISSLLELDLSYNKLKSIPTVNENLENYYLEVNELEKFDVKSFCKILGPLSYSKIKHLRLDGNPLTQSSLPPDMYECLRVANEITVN

Target: c-myc tagged full length Lum (pSecTag-Lum-c-myc) (UniProt P51885)
Assay: co-IP; HEK293 cells co-transfected with ALK5-flag and Lum-myc, LumN288-myc or LumC50-myc; 0.5 mg/ml DSP on ice for 45 min; lysis in 50 mM Tris/HCl pH 7.4, 150 mM NaCl, 1% Triton X100; anti-c-myc Sepharose beads, eluted with c-myc peptide; blots with anti-flag and anti-c-myc

B1: ALK5-Flag (transforming growth factor-β receptor 1, TGFBR1) (receptor, UniProt P36897 34-503)
chain: LQCFCHLCTKDNFTCVTDGLCFVSVTETTDKVIHNSMCIAEIDLIPRDRPFVCAPSSKTGSVTTTYCCNQDHCNKIELPTTVKSSPGLGPVELAAVIAGPVCFVCISLMLMVYICHNRTVIHHRVPNEEDPSLDRPFISEGTTLKDLIYDMTTSGSGSGLPLLVQRTIARTIVLQESIGKGRFGEVWRGKWRGEEVAVKIFSSREERSWFREAEIYQTVMLRHENILGFIAADNKDNGTWTQLWLVSDYHEHGSLFDYLNRYTVTVEGMIKLALSTASGLAHLHMEIVGTQGKPAIAHRDLKSKNILVKKNGTCCIADLGLAVRHDSATDTIDIAPNHRVGTKRYMAPEVLDDSINMKHFESFKRADIYAMGLVFWEIARRCSIGGIHEDYQLPYYDLVPSDPSVEEMRKVVCEQKLRPNIPNRWQSCEALRVMAKIMRECWYANGAARLTALRIKKTLSQLSQQEGIKM
  binding: binds
